Values quoted from earlier work, collected in US20210239702A1, “METHODS FOR PREDICTING RESPONSIVENESS OF LUNG CANCER PATIENTS TO HER2-TARGETING THERAPIES” (MEMORIAL SLOAN KETTERING CANCER CENTER, priority 2018, published 2021).
Some results were stated once for a whole list of compounds, not compound by compound. Some ranges recur; such a range may be that of the whole group of compounds.

Tested on: HER2 mutant lung cancers
Settings: patients with HER2 mutant lung cancers; cited from earlier work

CCOc1cc2ncc(C#N)c(Nc3ccc(OCc4ccccn4)c(Cl)c3)c2cc1NC(=O)/C=C/CN(C)C [neratinib]
response rates: 0-19%
